Patent US20240026366
For part of these data: Where cells or extracts were used, other partners may take part. For part of these data: A weaker result is weaker than the reference pair of the same experiment.

Chains of the proteins cited; added tags and fusions are not shown. Residues count along the entry.
UniProt P08637, 17-254: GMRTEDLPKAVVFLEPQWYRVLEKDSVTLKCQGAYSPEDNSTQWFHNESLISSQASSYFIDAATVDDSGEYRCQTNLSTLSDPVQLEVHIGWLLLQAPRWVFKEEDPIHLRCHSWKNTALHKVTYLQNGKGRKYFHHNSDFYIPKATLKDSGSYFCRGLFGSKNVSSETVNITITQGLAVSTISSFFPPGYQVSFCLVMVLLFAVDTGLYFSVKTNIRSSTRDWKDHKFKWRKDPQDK

Legend:
[1] = target: HER2 (ERBB2) on SKBR3 cells (UniProt P04626); experiment: flow cytometry; settings: protein on the cell surface, protein details: native on SKBR3 breast cancer cells, SA-FITC
[2] = target: CD16 (FcgammaRIII) on PBMCs / enriched NK cells (UniProt P08637); experiment: activity in cells; settings: protein on the cell surface
[3] = target: CD16 (FcgammaRIII) on PBMCs / enriched NK cells (UniProt P08637); experiment: flow cytometry; settings: protein on the cell surface, SA-FITC
[4] = SKBR3, 25 C 30 min, less than SEQ 1, label: 5'-biotin, single-stranded DNA
[5] = SKBR3, less than dsA7 and dsA10, label: biotin, single-stranded DNA
[6] = PBMCs/NK cells, less than dsA7 and dsA10, label: biotin, single-stranded DNA

Sequence	binding result [1, 5]	binding result [3, 6]	also measured
AACCGCCCAAATCCCTAAGAGTCTGCACTTGTCATTTTGTATATGTATTTGGTTTTTGGCTCTCACAGACACACTACACACGCACA [anti-HER2 aptamer SEQ 15]			binding result [1, 4]: binds more weakly
GCAGCGGTGTGGGGGCAGCGGTGTGGGGGCAGCGGTGTGGGGAAAAAAAAAAAAAAAAAAAACCACTGCGGGGGTCTATACGTGAGGAAGAAGTGGGCAGGTC [dsA7]			functional effect of the aptamer ([2]; ADCC lysis of SKBR3, dose-dependent up to 150 nM, inhibited by 150 nM 3G8 anti-CD16 antibody, single-stranded DNA): active
GCAGCGGTGTGGGGGCAGCGGTGTGGGGGCAGCGGTGTGGGGAAAAAAAAAAAAAAAAAAAACCACTGCGGGGGTCTATACGTGAGGAAGAAGTGGGCAGGTC / TTTTTTTTTTTTTTTTTTTT [dsA10]			functional effect of the aptamer ([2]; ADCC lysis of SKBR3, at least 90% of maximum Trastuzumab cytotoxicity, folded or branched DNA, variant of dsA7, dose not given …): active
CCACTGCGGGGGTCTATACGTGAGGAAGAAGTGGGCAGGTC [anti-CD16 aptamer SEQ 3]			binding result ([3]; PBMCs and NK cells, 1000 nM, 25 C 30 min, similar to 3G8 antibody, label: 3'-biotin, single-stranded DNA): binds
GCAGCGGTGTGGGGGCAGCGGTGTGGGGGCAGCGGTGTGGGGAAAAAAAAAAAAAAAAAAAACCACTGCGGGGGTCTATACGTGAGGAAGAAGTGG [dsA6]	binds more weakly	binds more weakly	
CCACTGCGGGGGTCTATACGTGAGGAAGAAGTGGAAAAAAAAAAAAAAAAAAAAGCAGCGGTGTGGGGGCAGCGGTGTGGGGGCAGCGGTGTGGGG [dsA5]	binds more weakly	binds more weakly	
CCACTGCGGGGGTCTATACGTGAGGAAGAAGTGGGCAGGTCAAAAAAAAAAAAAGCAGCGGTGTGGGGGCAGCGGTGTGGGGGCAGCGGTGTGGGG [dsA4]	binds more weakly	binds more weakly	
CCACTGCGGGGGTCTATACGTGAGGAAGAAGTGGGCAGGTCGCAGCGGTGTGGGGGCAGCGGTGTGGGGGCAGCGGTGTGGGG [dsA2]	binds more weakly	binds more weakly	
CCACTGCGGGGGTCTATACGTGAGGAAGAAGTGGGCAGCGGTGTGGGGGCAGCGGTGTGGGGGCAGCGGTGTGGGG [dsA1]	binds more weakly	binds more weakly	
CCACTGCGGGGGTCTATACGTGAGGAAGAAGTGGAAAAAAAGCAGCGGTGTGGGGGCAGCGGTGTGGGGGCAGCGGTGTGGGG [dsA3]	binds more weakly	binds more weakly	
TCTAAAAGGATTCTTCCCAAGGGGATCCAATTCAAACAGC [anti-HER2 aptamer SEQ 16]			binding result [1, 4]: binds more weakly
GCAGCGGTGTGGGGGCAGCGGTGTGGGGGCAGCGGTGTGGGGAAAAAAAAAAAAAAAAAAAACCACTGCGGGGGTCTATACGTGAGGAAGAAGTGG / TTTTTTTTTTTTTTTTTTTT [dsA9]			binding result ([1]; SKBR3, less than dsA7 and dsA10, label: biotin, folded or branched DNA, variant of dsA6): binds more weakly; binding result ([3]; PBMCs/NK cells, less than dsA7 and dsA10, label: biotin, folded or branched DNA, variant of dsA6): binds more weakly
CCACTGCGGGGGTCTATACGTGAGGAAGAAGTGGAAAAAAAAAAAAAAAAAAAAGCAGCGGTGTGGGGGCAGCGGTGTGGGGGCAGCGGTGTGGGG / TTTTTTTTTTTTTTTTTTTT [dsA8]			binding result ([1]; SKBR3, less than dsA7 and dsA10, label: biotin, folded or branched DNA, variant of dsA5): binds more weakly; binding result ([3]; PBMCs/NK cells, less than dsA7 and dsA10, label: biotin, folded or branched DNA, variant of dsA5): binds more weakly
